Laboratory results as given in the supplement of paper PMC10727501.
This is one part of the list. Single values are uncertain here, since repeats match poorly.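 Free-swimming zebrafish larvae were assessed for O-bend response probability to dark flashes (naive: first five; training: remaining flashes across four 60-flash blocks; test: later 60-flash block) and for OMR turning toward alternating leftward/rightward LED motion. Six treated larvae were compared against sixty 0.1% DMSO controls; hits required |SSMD|≥2.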

Test system: Danio rerio larvae (5 dpf, TLF)
Experiment: OMR-Perf (SSMD vs DMSO vehicle); higher = higher than vehicle (e.g. higher dark-flash O-bend response probability, or better optomotor performance)
Details: 10 µM; pre-incubation: 30-90 min

| Compound | OMR-Perf |
| --- | --- |
| CNC(=O)c1cc(Oc2ccc(NC(=O)Nc3cc(C(C)(C)C)nn3-c3ccc4ncccc4c3)c(F)c2)ccn1 [DCC-2036 (Rebastinib)] | -0.373 |
| CNC(=O)CN(CCN(CCN(CC(=O)[O-])CC(=O)NC)CC(=O)[O-])CC(=O)[O-].O.[Gd+3] [Gadodiamide] | 0.0971 |
| COc1cccc2c1C(=O)c1c(O)c3c(c(O)c1C2=O)C[C@@](O)(C(=O)CO)C[C@H]3O[C@H]1C[C@H](N)[C@H](O)[C@H](C)O1.Cl [Doxorubicin (Adriamycin)] | 0.0748 |
| CC1(C)S[C@@H]2[C@H](NC(=O)Cc3ccccc3)C(=O)N2[C@H]1C(=O)[O-].[Na+] [Penicillin G Sodium] | -0.488 |
| CC(C)(C)C(=O)OCOP(=O)(COCCn1cnc2c(N)ncnc21)OCOC(=O)C(C)(C)C [Adefovir Dipivoxil] | -0.152 |
| CCCCCCCCCCC[C@@H](C[C@@H]1OC(=O)[C@H]1CCCCCC)OC(=O)[C@H](CC(C)C)NC=O [Orlistat] | -0.155 |
| CCC[C@@H]1O[C@@H]2C[C@H]3[C@@H]4CCC5=CC(=O)C=C[C@]5(C)[C@@H]4[C@H](O)C[C@]3(C)[C@@]2(C(=O)CO)O1 [Budesonide] | -0.439 |
| CC(C)(S)[C@@H](N)C(=O)O [Penicillamine (Cuprimine)] | 0.751 |
| NC(=O)c1ccc(N(C(N)=O)c2c(F)cccc2F)nc1-c1ccc(F)cc1F | -0.511 |
| CCOC(=O)O[C@@]1(C(=O)OCCl)CC[C@H]2[C@@H]3CCC4=CC(=O)C=C[C@]4(C)[C@@H]3[C@H](O)C[C@@]21C [Loteprednol etabonate] | 0.0384 |
| C[C@@](Cc1ccc(O)c(O)c1)(NN)C(=O)O [Carbidopa] | -0.185 |
| CC(C)c1ccccc1Cc1cc(C(=O)Nc2ccc(S(=O)(=O)c3ccccc3C(C)(C)C)cc2)c(O)c(O)c1O | -0.485 |
| CS(=O)c1ccc(-c2nc(-c3ccc(F)cc3)c(-c3ccncc3)[nH]2)cc1 (centres undefined) | 0.446 |
| Clc1ccc(C2(c3ccc(-c4cn[nH]c4)cc3)CCNCC2)cc1 | -0.331 |
| CC[C@H](/C=C/[C@@H](C)[C@@H]1CC[C@H]2[C@@H]3CC=C4C[C@@H](O)CC[C@]4(C)[C@@H]3CC[C@@]21C)C(C)C [Stigmasterol] | 0.163 |
| CC(=O)NC[C@H]1CN(c2ccc(N3CCOCC3)c(F)c2)C(=O)O1 [Linezolid] | 0.408 |
| CC[N+](CC)(CC)CCOc1cccc(OCC[N+](CC)(CC)CC)c1OCC[N+](CC)(CC)CC.[I-].[I-].[I-] [Gallamine Triethiodide] | -0.582 |
| CN1CCN(c2ccc3nc(-c4c(N)c5c(F)cccc5[nH]c4=O)[nH]c3c2)CC1 [Dovitinib (TKI-258, CHIR-258)] | 0.182 |
| O=C(Nc1cccc(Cl)c1)c1ccccn1 | -0.5 |
| CC(O)C(=O)O.CC(O)C(=O)O.CN1CCN(c2ccc3nc(-c4c(N)c5c(F)cccc5[nH]c4=O)[nH]c3c2)CC1 [Dovitinib (TKI-258) Dilactic Acid] | 0.199 |
| C[C@@H]1C(=O)O[C@H]2CC34[C@H]5C[C@@H](C(C)(C)C)C36[C@@H](OC(=O)[C@H]6O)O[C@@]4(C(=O)O5)[C@]21O (some centres undefined) [Ginkgolide A] | -0.155 |
| CC1(C)[C@@H](O[C@H]2O[C@H](C(=O)O)[C@@H](O)[C@H](O)[C@@H]2O[C@@H]2O[C@H](C(=O)O)[C@@H](O)[C@H](O)[C@H]2O)CC[C@@]2(C)[C@H]3C(=O)C=C4[C@@H]5C[C@@](C)(C(=O)O)CC[C@]5(C)CC[C@@]4(C)[C@]3(C)CC[C@@H]12.N [Ammonium Glycyrrhizinate] | 0.618 |
| C#C[C@@]1(O)CC[C@H]2[C@@H]3CCc4cc(O)ccc4[C@@H]3CC[C@@]21C [Ethinyl Estradiol] | -0.253 |
| COc1ccc(NS(=O)(=O)c2sc3ccc(Cl)cc3c2C)cc1N1CCNCC1 | -0.539 |

2 of the compounds above, with bars between the fields:
Compound | OMR-Perf
CN1CCN(c2ccc3nc(-c4c(N)c5c(F)cccc5[nH]c4=O)[nH]c3c2)CC1 [Dovitinib (TKI-258, CHIR-258)] | 0.182
O=C(Nc1cccc(Cl)c1)c1ccccn1 | -0.5
